{"source": "PubChem BioAssay AID1671195, Yale University | 2021", "purpose": "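Regulators of LDL receptor activity judged by labelled LDL uptake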 (primary screen)", "system": "human Huh7 hepatoma cells", "reagents": "siRNA pool against human genes, 18 nM", "time to read-out": "about 2 to 2.5 days of knockdown, then 8 h LDL uptake", "challenge": "DiI-labelled LDL at 30 µg/ml for 8 h, in lipoprotein-deficient serum medium", "measurement": "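Per-cell DiI-LDL intensity by automated imaging; well means scaled to the plate median and given as a robust z-score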", "direction": "robust z-score: higher = more LDL uptake after knockdown", "active means": "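a gene counts as active if at least two replicate z-scores exceed ±2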", "note": "The whole screen tested about 22,000 reagents; below is a random part of them. About 1,510 of them (6.9%) count as active. 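Active includes knockdowns raising or lowering LDL uptake; positive z-scores mean more uptake, negative mean less.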 No sequences are given here."}
{"gene":"DKFZp451B082 (GeneID 401282)","robust z-score, replicate 1":0.535,"robust z-score, replicate 2":0.212,"robust z-score, replicate 3":0.438,"activity call":"inactive"}
{"gene":"ZNF571 (GeneID 51276)","robust z-score, replicate 1":0.358,"robust z-score, replicate 2":-0.406,"robust z-score, replicate 3":-0.667,"activity call":"inactive"}
{"gene":"ATP5PD (GeneID 10476)","robust z-score, replicate 1":-0.631,"robust z-score, replicate 2":-1.58,"robust z-score, replicate 3":0.108,"activity call":"inactive"}
{"gene":"ZNF586 (GeneID 54807)","robust z-score, replicate 1":1.46,"robust z-score, replicate 2":3.28,"robust z-score, replicate 3":1.3,"activity call":"inactive"}
{"gene":"RAB12 (GeneID 201475)","robust z-score, replicate 1":1.48,"robust z-score, replicate 2":0.225,"robust z-score, replicate 3":0.303,"activity call":"inactive"}
{"gene":"STAC (GeneID 6769)","robust z-score, replicate 1":-0.0505,"robust z-score, replicate 2":0.443,"robust z-score, replicate 3":2.04,"activity call":"inactive"}
{"gene":"LOC343153 (retired record) (GeneID 343153)","robust z-score, replicate 1":-0.105,"robust z-score, replicate 2":0.166,"robust z-score, replicate 3":0.0347,"activity call":"inactive"}
{"gene":"TUSC2 (GeneID 11334)","robust z-score, replicate 1":1.44,"robust z-score, replicate 2":-0.248,"robust z-score, replicate 3":0.0746,"activity call":"inactive"}
{"gene":"PMS1 (GeneID 5378)","robust z-score, replicate 1":-1.62,"robust z-score, replicate 2":-1.12,"robust z-score, replicate 3":-1.08,"activity call":"inactive"}
{"gene":"TGM1 (GeneID 7051)","robust z-score, replicate 1":-0.687,"robust z-score, replicate 2":-0.467,"robust z-score, replicate 3":-0.172,"activity call":"inactive"}
{"gene":"TRIB3 (GeneID 57761)","robust z-score, replicate 1":0.217,"robust z-score, replicate 2":-0.539,"robust z-score, replicate 3":0.05,"activity call":"inactive"}
{"gene":"GNL3 (GeneID 26354)","robust z-score, replicate 1":-0.963,"robust z-score, replicate 2":-1.08,"robust z-score, replicate 3":-0.52,"activity call":"inactive"}
{"gene":"NSUN6 (GeneID 221078)","robust z-score, replicate 1":-0.446,"robust z-score, replicate 2":-0.257,"robust z-score, replicate 3":-0.288,"activity call":"inactive"}
{"gene":"EN1 (GeneID 2019)","robust z-score, replicate 1":-0.901,"robust z-score, replicate 2":-1.86,"robust z-score, replicate 3":-1.48,"activity call":"inactive"}
{"gene":"DEFB105A (GeneID 245908)","robust z-score, replicate 1":-1.26,"robust z-score, replicate 2":-1.5,"robust z-score, replicate 3":-1.26,"activity call":"inactive"}
{"gene":"TNRC6B (GeneID 23112)","robust z-score, replicate 1":-1.24,"robust z-score, replicate 2":0.264,"robust z-score, replicate 3":-0.433,"activity call":"inactive"}
